Experimental data from publication doi:10.1101/2025.06.06.658343.
These are yes or no findings as the source states them, for the method shown.

Amino acid sequences for entries named in this document (tags omitted). A change or cut given only in a name is not applied to a line headed by its entry. Chains listed by the source or under a name are the forms on record and can include a tag or linker.
UniProt Q9H171: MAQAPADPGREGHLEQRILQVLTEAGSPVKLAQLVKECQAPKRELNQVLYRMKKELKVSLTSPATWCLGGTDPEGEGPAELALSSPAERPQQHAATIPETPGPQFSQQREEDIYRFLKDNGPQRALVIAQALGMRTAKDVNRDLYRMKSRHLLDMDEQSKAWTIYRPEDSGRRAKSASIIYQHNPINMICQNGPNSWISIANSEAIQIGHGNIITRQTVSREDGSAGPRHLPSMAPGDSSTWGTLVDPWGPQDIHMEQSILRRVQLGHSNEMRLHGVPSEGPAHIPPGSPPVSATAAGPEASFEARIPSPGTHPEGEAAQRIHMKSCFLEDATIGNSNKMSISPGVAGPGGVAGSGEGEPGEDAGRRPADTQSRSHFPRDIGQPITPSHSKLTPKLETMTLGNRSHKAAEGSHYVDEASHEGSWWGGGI
Zα domains-mutant human ZBP1 (mutZα1α2) fused C-terminally to eGFP-V5 (Q9H171, form named): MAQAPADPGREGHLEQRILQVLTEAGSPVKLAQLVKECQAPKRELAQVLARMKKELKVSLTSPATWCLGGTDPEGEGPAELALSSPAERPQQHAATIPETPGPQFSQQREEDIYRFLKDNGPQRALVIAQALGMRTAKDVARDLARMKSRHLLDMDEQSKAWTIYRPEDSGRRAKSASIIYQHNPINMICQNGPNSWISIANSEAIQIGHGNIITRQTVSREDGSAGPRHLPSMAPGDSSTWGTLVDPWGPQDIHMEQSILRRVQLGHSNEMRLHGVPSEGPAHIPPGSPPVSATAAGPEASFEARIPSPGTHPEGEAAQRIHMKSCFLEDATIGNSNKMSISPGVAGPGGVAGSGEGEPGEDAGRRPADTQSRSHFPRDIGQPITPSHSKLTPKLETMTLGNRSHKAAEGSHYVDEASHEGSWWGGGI

Molecular target: Zα domains-mutant human ZBP1 (mutZα1α2) fused C-terminally to eGFP-V5 (human) (UniProt Q9H171)
Assay: semi-denaturing detergent agarose gel electrophoresis

“Zα domains-mutant human ZBP1 (mutZα1α2) fused C-terminally to eGFP-V5 (from UniProt Q9H171 1-429)” was tested. Which binding did it give?
The binding was “no binding”.
